A word on the AC50: it is the concentration at which the activity in the assay is half-maximal. Low values mean activity at low concentration, high ones activity only at high concentration.

Some of the results follow. These are further read-outs of the screen, such as a control signal, another cell line or another target. No call is given for them. Most of these compounds were active or inconclusive in the main read-out, so they are no random draw. The note in brackets gives the kind of curve behind each potency; many fits are weak.

We go through 64 compounds from PubChem BioAssay AID2685 (National Center for Advancing Translational Sciences (NCATS), 2010).

The assay in a line: qHTS Assay for Lipid Storage Modulators in Drosophila S3 Cells.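 On cell number change: cells counted by Cell Tracker Red CMTPX staining in the red channel.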 The conditions noted are these: BODIPY lipid droplet fluorescence, 18-24 h; for cell number change: measured here: cell count max response, cells fed with added oleic acid. The gist of the method: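 Drosophila S3 cells got compounds at several concentrations plus oleic acid (400 uM solution). Laser-scanning cytometry with 488 nm excitation read lipid droplets at 500-530 nm and cells at 575-640 nm. Percent activity was relative to 20 uM Triacsin C.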

[1] abbreviates: measured here: lipid fluorescence (Fed channel) AC50, cells fed with added oleic acid.
The mark [2] stands for this setting: measured here: cell number channel AC50, cells fed with added oleic acid.

In the case of `O=C(Nc1ccccc1C(F)(F)F)N1CCN(c2ccccn2)CC1`, the cell number change was -14%.

Turning to `COc1cccc(NC(=O)C2CCN(S(=O)(=O)c3ccc4c(c3)C(C)(C)C(=O)N4C)CC2)c1`, the cell number change turned out to be 9.58%.

Regarding `CC(C)[C@H](NC(=O)OC(C)(C)C)C(=O)N/N=C/c1cccc2nccnc12`, the cell number change came to 7.56%. For the same compound, the AC50 under setting [1] was 0.103 µM [falling, full curve, poor fit].

`COC(=O)c1cc(NC(=O)CN(c2ccccc2OC)S(=O)(=O)c2ccccc2)ccc1Cl`: the cell number change was -21.4%. Moreover, the AC50 under setting [1] was 0.517 µM [falling, single point].

In the case of `COC(=O)C1=C(C)N2C(=O)CSC2=NC1c1ccc2c(c1)OCO2` (centres undefined), the cell number change was -14.4%.

Take `Cc1c(C(=O)Nc2nc3ccccc3[nH]2)oc2ccc(Br)cc12`: the cell number change was -19.7%.

Turning to `CC1CCN(C(=O)c2[nH]cnc2C(=O)N2CCN(c3ccccc3)CC2)CC1`, the cell number change was determined as 10.3%. In addition, the AC50 under setting [2] was 0.0731 µM [falling, single point]. For the same compound, under setting [1], the AC50 was 0.082 µM [falling, single point].

On to `Cc1cc(C)n2nc(C(=O)NCc3ccco3)cc2n1`, for which the AC50 under setting [2] is 1.84 µM [falling, partial curve, poor fit].

As to `O=C(NC1CCC(CC2CCC(NC(=O)C(Cl)Cl)CC2)CC1)C(Cl)Cl` (centres undefined), the cell number change is 24.9%. Moreover, the AC50 under setting [1] was 6.51 µM [falling, single point].

Turning to `CCn1nnnc1SCC(=O)Nc1ccc(N(C)C)cc1`, the AC50 under setting [1] is 0.517 µM [rising, partial curve, poor fit].

Turning to `COc1cc(OC)cc(C(=O)NC(C)CNc2ccc(Cl)cc2[N+](=O)[O-])c1` (centres undefined), the AC50 under setting [1] is 29.1 µM [falling, single point].

On to `CCc1ccccc1N1C(=O)c2ccccc2S1(=O)=O`, for which the cell number change came to 20.1%. Also, under setting [1], the AC50 is 3.66 µM [rising, partial curve].

On to `COc1ccccc1N1CCN(CCCNC(=O)C2CCCN(c3ncnc4c3nc3n4CCCCC3)C2)CC1` (centres undefined), for which the cell number change was 7.25%. Moreover, the AC50 under setting [1] is 6.51 µM [rising, single point].

With `CCCN1CCN(C(=O)C(C)n2nc(C)c3sc4ccccc4c3c2=O)CC1` (centres undefined), the cell number change is -8.87%. Further, the AC50 under setting [1] is 29.1 µM [rising, single point].

For the compound `Cc1ccc(/C=N/n2c(C)nnc2C)o1`, the cell number change was -10.3%. Moreover, the AC50 under setting [2] is 5.8 µM [rising, single point]. Further, the AC50 under setting [1] was 4.61 µM [rising, single point].

As to `CCOc1ccccc1NC(=O)Nc1ccc2c(c1)CCC2`, the cell number change is -6.94%. Besides, the AC50 under setting [1] was 23.1 µM [falling, single point].

In the case of `COc1cc([N+](=O)[O-])ccc1NC(=O)C1CCCN(S(C)(=O)=O)C1` (centres undefined), the cell number change was 12.1%.

For `CNC(=O)Nc1nnc(C(C)(C)C)s1`, the cell number change came to 8.79%. In addition, the AC50 under setting [1] is 29.1 µM [rising, single point].

`COc1ccc(S(=O)(=O)NC2CCCC2)c(OC)c1`: the cell number change is -20.7%. Moreover, under setting [1], the AC50 is 6.51 µM [rising, single point].

With `COc1ccc(-c2nc(CSCC(=O)NC3CCCc4ccccc43)c(C)o2)cc1OC` (centres undefined), the cell number change is -17%. Also, the AC50 under setting [1] is 0.092 µM [rising, full curve, poor fit].

As for `CCN(CC(=O)NCc1ccc(F)cc1)C(=O)c1oc2ccccc2c1C`, the cell number change worked out at 39.1%. Besides, the AC50 under setting [2] was 32.6 µM [rising, partial curve, poor fit]. The AC50 under setting [1] was 32.6 µM [rising, partial curve, poor fit].

As for `Cc1cccc(Oc2ncnc3onc(C)c23)c1`, the cell number change is -27.3%. Besides, the AC50 under setting [1] is 2.06 µM [falling, partial curve].

As for `Cc1nn(C)c(C)c1NC(=O)c1ccnn1C`, the cell number change amounted to 4.79%.

For `O=C(Nc1cccc([N+](=O)[O-])c1)Nc1cccs1`, the cell number change was 4.41%. Besides, the AC50 under setting [2] is 0.731 µM [rising, full curve, poor fit].

On to `CCSC1=NN2CCS(=O)(=O)N=C2S1`, for which the cell number change was -16.5%.

On to `O=C(CNC(=O)c1ccccc1C(F)(F)F)N/N=C/c1cccs1`, for which the cell number change is -1.32%. The AC50 under setting [1] was 29.1 µM [rising, single point].

As for `Cc1nn(-c2ccccc2)nc1C(=O)c1c(C)[nH]n(-c2ccccc2)c1=O`, the cell number change was 20%. For the same compound, under setting [1], the AC50 was 1.3 µM [falling, full curve].

Consider `COc1ccc(C(c2nnnn2Cc2cccs2)N2CCN(c3ccccc3F)CC2)cc1` (centres undefined), for which the cell number change is 21.7%. Also, the AC50 under setting [1] was 0.461 µM [rising, partial curve].

`Cn1c(NN)nc2sc3c(c2c1=O)CCC3`: the cell number change is -51.2%. Further, under setting [2], the AC50 is 2.06 µM [falling, partial curve].

Consider `COc1ccc(-c2noc(C3CCCN(C(=O)c4c(F)cccc4F)C3)n2)cc1OC` (centres undefined), for which the cell number change came out at 0.293%.

With `CC(CCn1cccn1)NC(=O)c1cc(COc2ccc(F)cc2Cl)on1` (centres undefined), the cell number change is -9.93%. For the same compound, the AC50 under setting [1] was 0.411 µM [falling, full curve].

Regarding `Cc1cc(C)cc(NS(=O)(=O)c2cnc(Cl)c(Cl)c2)c1`, the cell number change was -83.5%. Also, under setting [2], the AC50 was 29.1 µM [falling, single point]. For the same compound, the AC50 under setting [1] was 29.1 µM [falling, single point].

On to `O=C(CCc1ccccc1)Nc1ccncc1`, for which the cell number change is -3.44%. Further, under setting [1], the AC50 was 16.4 µM [rising, partial curve].

As for `COc1ccc(CC(=O)OCCN(C)C)cc1`, the cell number change is -68.2%. Besides, under setting [2], the AC50 was 20.6 µM [falling, single point].

Take `CCCc1cc(=O)oc2cc(C)cc(OCC(=O)Nc3cccnc3)c12`: the cell number change was 25.2%.

`Cc1ccc(C)c(S(=O)(=O)N2CCN(C(=O)C(C)Sc3ccccc3)CC2)c1` (centres undefined): the cell number change is -0.578%.

On to `Brc1ccc(-c2ccccc2)cc1`, for which the cell number change is -33.4%.

Regarding `CCOC(=O)c1sc(NC(=O)CNC(=O)Cn2cnc3sc(C)c(C)c3c2=O)nc1C`, the cell number change was -11.6%. For the same compound, under setting [1], the AC50 is 0.461 µM [falling, full curve].

In the case of `Cc1ccc(Cc2c(C)[nH]c(=S)[nH]c2=O)cc1`, the cell number change worked out at 8.05%.

On to `CCOc1ccc(C(C)NC(=O)Cc2ccccc2)cc1OCC` (centres undefined), for which the cell number change is -0.948%. For the same compound, the AC50 under setting [2] is 0.58 µM [rising, full curve, poor fit].

In the case of `O=C(COC(=O)/C=C/c1cccc([N+](=O)[O-])c1)NCc1ccc2c(c1)OCO2`, the AC50 under setting [2] is 0.00411 µM [falling, full curve, poor fit].

With `Cc1cc(Oc2ccccc2)nc(SCC(=O)Nc2ccccc2)n1`, the cell number change was determined as 109%. The AC50 under setting [2] is 7.31 µM [rising, partial curve]. Besides, the concentration at half-maximal activity (AC50) under setting [1] is 11.6 µM [rising, partial curve].

As to `COC(=O)c1ccccc1N/C=C/C(=O)c1ccc(Br)cc1`, the cell number change turned out to be 39%. The AC50 under setting [2] was 4.61 µM [rising, partial curve]. The AC50 under setting [1] is 1.46 µM [rising, partial curve].

For `CC1CCN(S(=O)(=O)c2ccc(NC(=O)Cc3cccs3)cc2)CC1`, the cell number change worked out at 39.4%. Further, under setting [2], the AC50 was 8.2 µM [rising, single point].

On to `Cn1c(SCC(=O)Nc2cccc3ccccc23)nc(O)cc1=O`, for which the cell number change is -65.8%. In addition, the AC50 under setting [2] was 32.6 µM [falling, single point].

Take `COc1cc(OC)cc(C(=O)NN(CCC#N)C2=NS(=O)(=O)c3ccccc32)c1`: the cell number change came out at 25.2%. Moreover, under setting [1], the AC50 is 29.1 µM [rising, single point].

On to `Cc1ccc(-c2nnc(Nc3ccc4c(c3)OCO4)c3ccccc23)cc1S(=O)(=O)NCCO`, for which the cell number change was -15.7%. Besides, the half-maximal activity concentration (AC50) under setting [1] is 20.6 µM [falling, single point].

As for `CCOc1ccc(C(=O)NC2CC(=O)N(c3ccc4c(c3)OCCO4)C2)cc1` (centres undefined), the cell number change was 29.5%. Moreover, the AC50 under setting [1] is 20.6 µM [rising, single point].

Regarding `CS(=O)(=O)c1ccc(C(=O)OCC(=O)NC(=O)Cc2ccccc2)cc1`, the cell number change is -53%. Besides, under setting [2], the AC50 is 25.9 µM [falling, partial curve, poor fit]. Besides, the AC50 under setting [1] was 9.2 µM [falling, partial curve].

Consider `CS(=O)(=O)N1CCc2cc(C(=O)O)ccc21`, for which the cell number change is -1.6%. The AC50 under setting [1] is 0.146 µM [rising, full curve, poor fit].

With `O=C(c1cccs1)c1cn(CC(=O)N2CCc3ccccc3C2)c2ccccc12`, the cell number change was -20.2%.

Take `CCOC(=O)C1CCN(C(=O)c2cc3cc(Br)ccc3oc2=O)CC1`: the AC50 is 0.291 µM [falling, full curve, poor fit] under setting [2] and 0.184 µM [falling, full curve] under setting [1].

As to `COc1ccc(CNC(=O)c2csc(Cc3ccc(OC)cc3)n2)cc1`, the cell number change is 17.5%. Further, the AC50 under setting [1] was 29.1 µM [rising, single point].

On to `COCCn1c(=S)[nH]c2cc(OC)c(OC)cc2c1=O`, for which the cell number change came out at 8.36%. Further, the AC50 under setting [1] was 0.0731 µM [rising, single point].

For the compound `Fc1ccc(Cn2c(-c3cscn3)nc3ccccc32)c(Cl)c1`, the AC50 reads like this: under setting [2], 1.84 µM [rising, partial curve]; under setting [1], 1.64 µM [rising, partial curve].

`CCOC(=O)c1c(NC(=O)CC)sc2c1CCN(Cc1ccccc1)C2`: the cell number change is -23.6%. For the same compound, the AC50 under setting [1] is 7.31 µM [falling, partial curve, poor fit].

In the case of `O=C(O)c1cc(S(=O)(=O)Nc2ccc3c(c2)OCCO3)c(Cl)cc1Cl`, the cell number change is -35%. In addition, under setting [2], the AC50 is 0.517 µM [falling, full curve]. In addition, under setting [1], the AC50 was 23.1 µM [falling, partial curve, poor fit].

As to `CC(C)CC(=O)Nc1nnn(C)n1`, the cell number change was 6.27%.

Consider `C/C(=N\NS(=O)(=O)c1ccc([N+](=O)[O-])cc1)c1ccc2c(c1)OCO2`, for which the cell number change turned out to be 27.2%.

Consider `Cc1cccc(N(CC(=O)N2CCOCC2)S(C)(=O)=O)c1`, for which the cell number change was found to be 14.7%. The AC50 under setting [1] is 18.4 µM [rising, single point].

As to `Cc1ccc(NC(=O)c2ccco2)cc1C`, the cell number change was determined as 23.8%. For the same compound, the AC50 under setting [2] is 0.517 µM [rising, full curve]. Besides, the half-maximal activity concentration (AC50) under setting [1] is 0.731 µM [rising, full curve].

On to `CCN(CC)C(=O)c1ccc(N)cc1`, for which the cell number change came to 3.91%.

`CSc1ccc(CN(C)C(=O)c2cccc(S(=O)(=O)N3CCN(Cc4ccccc4)CC3)c2)cc1`: the cell number change turned out to be 16.4%. The AC50 under setting [2] was 3.26 µM [rising, single point]. In addition, the AC50 under setting [1] was 18.4 µM [rising, single point].

Turning to `Cc1ccc(S(=O)(=O)N2CCN(c3ccnc4cc(Cl)ccc34)CC2)cc1`, the cell number change is -36.7%. Besides, the AC50 under setting [2] was 32.6 µM [falling, single point]. Also, the AC50 under setting [1] was 29.1 µM [falling, single point].
